# Source: PubChem BioAssay AID2551 (National Center for Advancing Translational Sciences (NCATS), 2010)
# Protein sequences, listed by entry. Tags and fused reporters are not part of them. Lines headed by an entry give the natural chain unless they say otherwise; changes in a name come on top.
# UniProt P51450: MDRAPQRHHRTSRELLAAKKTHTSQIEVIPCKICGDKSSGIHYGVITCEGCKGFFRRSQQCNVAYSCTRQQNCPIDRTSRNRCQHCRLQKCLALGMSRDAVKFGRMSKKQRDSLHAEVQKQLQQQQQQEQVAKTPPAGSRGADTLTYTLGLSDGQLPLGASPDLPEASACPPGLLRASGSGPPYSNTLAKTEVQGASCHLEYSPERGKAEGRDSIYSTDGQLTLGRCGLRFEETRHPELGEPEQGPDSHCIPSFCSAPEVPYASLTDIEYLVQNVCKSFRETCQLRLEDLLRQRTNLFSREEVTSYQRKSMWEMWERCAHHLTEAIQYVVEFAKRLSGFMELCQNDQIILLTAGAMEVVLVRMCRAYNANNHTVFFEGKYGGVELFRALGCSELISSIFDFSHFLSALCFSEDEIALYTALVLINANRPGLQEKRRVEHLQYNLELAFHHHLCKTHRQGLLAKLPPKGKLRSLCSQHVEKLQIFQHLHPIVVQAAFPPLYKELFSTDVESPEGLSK
# Where “and” joins values, the source holds several entries; their conditions need not be identical. Identical values can stand only once. Screen size: about 310,000 compounds; about 17,000 (5.5%) were called active. The shares of active, inactive and inconclusive entries below differ from those in the screen. Calls follow the shape of the dose curve; as a rule, active = well fitted inhibition curve with a large enough effect; inconclusive = small, poorly fitted or top-dose-only effect, or effect the other way; inactive = no such curve, though single readings can be large or run the other way. A potency beside an inconclusive call is a rough fit, not a confirmed value.
# Biological target: Nuclear receptor ROR-gamma (Mus musculus) (UniProt P51450)
# Experiment: qHTS for inhibitors of ROR gamma transcriptional activity; also: nearly all actives have a fitted effect of over 60% in size
# Settings: Drosophila S2 Gal4-RORgamma UAS-luciferase reporter, 20 h; series mostly up to 53.6 µM
# How it was run: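 Read-out: Photinus luciferase luminescence; inhibitors lower reporter signal. Insect Schneider cells with Gal4-ROR gamma fusion under metallothionein promoter, UAS reporter; 700 uM final copper sulfate induction, 20 hr, ambient temperature.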
# Potency is read from the fitted curve at half-maximal effect.
row,Structure (SMILES),Potency
1,C/C(=N\NC(=S)Nc1ccc(F)cc1)c1ccc2c(c1)OCCO2,active: 1.26 µM
2,N/C(=N\OC(=O)COc1ccc(Br)cc1Cl)c1ccncc1,inactive
3,CCC(C)c1ccc(Nc2ncccc2C#N)cc1 (configuration not stated),"inconclusive: 11.2 µM [activator, partial curve]"
4,S=C(Nc1ccccc1)Nc1nc2ccccc2n1CCOc1ccccc1,active: 1.12 µM
5,COC(=O)/C=C/C(=O)Nc1cccnc1,active: 11.2 µM
6,CC(C)(C)c1csc(NNC(=O)c2ccc(Cl)cc2)n1,active: 0.447 µM
7,CCOc1ccc2nc(NC(=O)c3ccco3)sc2c1,"inconclusive: 25.1 µM [inhibitor, single point]"
8,CCn1c(/C=N/NC(=O)c2ccc(OC)cc2)nc2ccccc21,"inconclusive: 20 µM [inhibitor, single point]"
9,O=C(NC(=S)Nc1ccccc1N1CCCCC1)c1ccc(F)cc1Cl,active: 4.47 µM
10,COc1ccc(/C=C2\SC(=O)NC2=S)cc1OC,"inconclusive: 35.5 µM [inhibitor, single point]"
11,O=C(Nc1ccc(-c2cn3ccccc3n2)cc1)c1ccco1,inactive
12,CC1(C)Cc2c(cnn2-c2ccc(F)cc2)C(NC(=O)CCN2CCCCC2=O)C1 (configuration not stated),"inconclusive: 5.62 µM [activator, full curve]"
13,Cc1cc(C)cc(N2C(=O)CC(Sc3ccccc3C(=O)O)C2=O)c1 (configuration not stated),"inconclusive: 3.98 µM [inhibitor, single point]"
14,O=C(COc1nsnc1N1CCOCC1)N/N=C/c1ccccc1O,active: 0.708 µM
15,CCN(CC)CCOC(=O)c1ccc(N/C=C(/C#N)c2nc(-c3cc4ccccc4oc3=O)cs2)cc1,"inconclusive: 35.5 µM [inhibitor, single point]"
16,Cc1cc(C)c(C)c(S(=O)(=O)Nc2ccccc2C(=O)NCCCn2ccnc2)c1C,inactive
17,O=C(NN1C(=O)c2cc(Br)ccc2NC1c1cc(Br)cc(Br)c1O)c1ccncc1 (configuration not stated),active: 5.01 µM
18,CCN(CC)c1ccc(-c2n[nH]c(=S)n2-c2ccccc2C)cc1,"inconclusive: 6.31 µM [inhibitor, full curve, poor fit]"
19,COc1ccc(-n2c(CCc3ccccc3)nnc2SCC(=O)NCc2ccccc2)cc1,"inconclusive: 35.5 µM [inhibitor, single point]"
20,Cc1ccnc(Sc2ccc([N+](=O)[O-])cc2[N+](=O)[O-])n1,active: 12.6 µM
21,COc1cccc(CN2CCN(CC(=O)Nc3ccccc3Cl)CC2)c1,inactive
22,CCCCC(=O)NC(=S)Nc1c(C)cc(Br)cc1C,active: 5.62 µM
23,Cc1cccc2sc(NC(=O)CNS(=O)(=O)c3ccc(Br)s3)nc12,active: 11.2 µM
24,CC(=O)Nc1ccc(C(=O)OCc2ccc(F)cc2Cl)cc1,"inconclusive: 3.98 µM [activator, full curve]"
25,O=C(Nc1ccccc1)Nc1ccccc1-n1ccnc1,inactive
26,c1ccc(Nc2ccc3c4c(cccc24)CC3)cc1,"inconclusive: 14.1 µM [activator, partial curve]"

row,Structure (SMILES),Potency
1,O=c1cnc2cnc(Oc3ccccc3)nc2n1Cc1cccs1,inactive
2,COc1ccc(-c2nn(-c3ccccc3)cc2/C=C2/SC(=S)N(CCC(=O)O)C2=O)c(C)c1,"inconclusive: 14.1 µM [activator, partial curve]"
3,Cc1cccc(CNc2cc(-c3cccnc3)ncn2)c1,inactive
4,O=C(Nc1ccncc1)c1c(F)cccc1F,"inconclusive: 7.94 µM [inhibitor, partial curve, poor fit]"
5,N=c1ccn(Cc2cccc(Cl)c2)cc1,inactive
6,COCCOc1ccc(C(F)(F)F)cc1NC(=O)COC(=O)c1c(C)noc1C,"inconclusive: 11.2 µM [activator, partial curve]"
7,Cc1ccc(NN2C(=O)C=C(c3ccc(Cl)cc3)C2=O)cc1,active: 7.08 µM
8,COCCOC(=O)C1=C(C)NC(C)=C(C(=O)OC/C=C/c2ccccc2)C1c1cccc([N+](=O)[O-])c1 (configuration not stated),"inactive and inconclusive: 11.2 µM [activator, single point]"
9,N#CC1=C(S)N(c2ccccc2)C(c2ccc(-c3cccc(Cl)c3)o2)NC1=O (configuration not stated),active: 12.6 µM
10,CC(=O)Nc1ccc(N=c2cc([N+](=O)[O-])cc(Cl)n2O)cc1,"inconclusive: 12.6 µM [inhibitor, partial curve]"
11,Cc1nc2ccccc2c2oc(C(=O)Nc3ccc(C(C)C)cc3)cc12,"inconclusive: 31.6 µM [activator, single point]"
12,O=C(CSc1nncn1-c1cccnc1)Nc1cccc(C(F)(F)F)c1,"inconclusive: 20 µM [activator, single point]"
13,O=C(Nc1cccc(C(F)(F)F)c1)c1cccnc1N1CCN(CCO)CC1,inactive
14,O=C(O)c1cn[nH]c1-c1cccc([N+](=O)[O-])c1,inactive
15,COc1cccc(C(=O)Nn2cnnc2)c1,"inconclusive: 11.2 µM [activator, partial curve]"
16,O=C(C1=C(O)C(=O)N(CCCN2CCOCC2)C1c1ccncc1)c1cc2ccccc2o1 (configuration not stated),inactive
17,CCOC(=O)c1ccc(NC(=O)CC2OCCN(CC)C2=O)cc1 (configuration not stated),active: 20 µM
18,O=C(CSCc1c(F)cccc1F)Nc1ccccc1,"inconclusive: 3.98 µM [activator, single point]"
19,CCN(CC)S(=O)(=O)c1ccc(/C=C/C(=O)Nc2ccc(F)c(F)c2F)cc1,"inconclusive: 8.91 µM [activator, partial curve]"
20,Cc1cccc(Nc2nc(N3CCN(C)CC3)nc(N)c2[N+](=O)[O-])c1,inactive
21,Cc1ccc(Cl)cc1N1CCN(C(=O)CSc2ccsc2[N+](=O)[O-])CC1,"inconclusive: 10 µM [activator, partial curve]"
22,COc1cc(NC(C)=O)c2ncccc2c1[N+](=O)[O-],active: 3.98 µM
23,O=C(NC(=S)Nc1ccc(-c2ccc(CO)o2)cc1)c1cccs1,"inconclusive: 12.6 µM [inhibitor, single point]"
24,CC(=O)Nc1cc(-c2nn3c(C)nnc3s2)ccc1C,"inconclusive: 3.55 µM [inhibitor, full curve, poor fit]"
25,Cc1cc(NC(=O)C2CC=CCC2C(=O)O)ccc1NC(=O)c1ccccc1 (configuration not stated),"inconclusive: 10 µM [activator, partial curve, poor fit]"
26,CCOC(=O)c1sc(NC(=O)CSc2nc(C)cc(C)n2)c(C#N)c1C,inactive

row,Structure (SMILES),Potency
1,CC(=O)Nc1ccc(S(=O)(=O)c2ccc(N)cc2)cc1,inactive
2,CC(C)Cn1c(O)c(N=NC(=O)c2cccc(S(=O)(=O)N3CCCCC3)c2)c2ccccc21,inactive
3,O=C1N=C(N2CCOCC2)S/C1=C1\C(=O)N(Cc2ccccc2)c2ccccc21,"inconclusive: 28.2 µM [inhibitor, single point]"
4,Fc1ccc(-n2cc(CNCCc3ccccn3)c(-c3ccccc3Cl)n2)cc1,"inconclusive: 7.08 µM [inhibitor, partial curve]"
5,CN(C)CCCN(C(=O)CCc1ccccc1)c1nc2ccc(F)cc2s1,"inconclusive: 2 µM [inhibitor, single point]"
6,Cn1c(=O)c2c(SCc3cccnc3)nc(CC(C)(C)C)nc2n(C)c1=O,"inconclusive: 35.5 µM [inhibitor, single point]"
7,Cc1oncc1C(=S)Nc1ccccc1,"inconclusive: 11.2 µM [inhibitor, partial curve]"
8,CCCCOc1ccc(C(=O)NNC(=O)C2C3CCC(C3)C2C(=O)O)cc1 (configuration not stated),"inconclusive: 10 µM [activator, partial curve, poor fit]"
9,CC1CCCCN1C(=O)c1ccc(OC2CCN(S(=O)(=O)N(C)C)CC2)cc1 (configuration not stated),"inconclusive: 11.2 µM [activator, partial curve]"
10,CCN=C1SC(CC(=O)NCC)C(=O)N1CC (configuration not stated),inactive
11,CC1CCCN(c2ccc(C(=O)Nc3cccnc3)cc2[N+](=O)[O-])C1 (configuration not stated),"inconclusive: 10 µM [activator, partial curve]"
12,CCOc1c(CNCCCSc2nc(C)cc(C)n2)cccc1OC,"inconclusive: 14.1 µM [activator, partial curve]"
13,COc1cccc(NC(=O)CNS(=O)(=O)c2ccc(Cl)cc2)c1,"inconclusive: 12.6 µM [activator, partial curve]"
14,CNc1cc(C)c(C#N)c2nc3ccccc3n12,inactive
15,Cc1ccc(CSc2nnc3ccc(-c4ccncc4)nn23)cc1,inactive
16,O=C(N/N=C/c1cccc([N+](=O)[O-])c1)c1cccc(Br)c1,"inconclusive: 15.8 µM [inhibitor, single point]"
17,O=S(=O)(Nc1ccc(S(=O)(=O)N2CCCC2)cc1)c1ccc(F)cc1,inactive
18,CC(=O)Nc1ccc(NC(=O)Cc2sc(C)nc2-c2ccc(C)cc2)cc1,"inconclusive: 12.6 µM [activator, partial curve]"
19,CC(C)CCC(CC(C)O)c1n[nH]c(=S)n1-c1ccccc1 (configuration not stated),"inconclusive: 25.1 µM [inhibitor, single point]"
20,COc1ccc(CCNc2ncnc3sc(C)cc23)cc1OC,"inconclusive: 0.0316 µM [activator, full curve, poor fit]"
21,CCOC(=O)c1sc2nc(C)[nH]c(=S)c2c1C,active: 0.562 µM
22,Nn1c(Cc2ccc(Br)cc2)n[nH]c1=S,inactive
23,S=C(c1cn(CCOc2cccc3ccccc23)c2ccccc12)N1CCCC1,active: 11.2 µM
24,CC(C)(C)C(=O)Nc1sc2c(c1-c1nc3ccccc3[nH]1)CCCC2,active: 0.794 µM
25,CCC(=O)Nc1ccc(-c2nnc(-c3ccccc3)o2)cc1,"inconclusive: 15.8 µM [inhibitor, single point]"
